Measured values as given in doi:10.1101/2020.06.17.156455.
These are yes or no findings as the source states them, for the method shown. In cells and extracts the contact can be indirect. A yes stands for co-enrichment or nearness to the bait. Other partners may have been found.

Assays:
Experiment in all cases: affinity purification with mass spectrometry
[1] = biological target: SARS-CoV-2 ORF7a, C-terminally HA-tagged (A549) (SARS-CoV-2) (UniProt P0DTC7)
[2] = biological target: SARS-CoV-2 ORF8, C-terminally HA-tagged (A549) (SARS-CoV-2) (UniProt P0DTC8)
[3] = biological target: SARS-CoV-2 ORF7b, C-terminally HA-tagged (A549) (SARS-CoV-2) (UniProt P0DTD8)
[4] = biological target: SARS-CoV-2 NSP13, C-terminally HA-tagged (A549) (SARS-CoV-2) (UniProt P0DTD1)
[5] = biological target: SARS-CoV N, C-terminally HA-tagged (A549) (SARS-CoV) (UniProt P59595)

## ATR (endogenous, A549) (from UniProt Q13535 1-2644)
[1]
  binding: binds

## LTBP1 (endogenous, A549) (from UniProt Q14766 24-1721)
[2]
  binding: binds

## MAVS (endogenous, A549) (from UniProt Q7Z434 1-540)
[3]
  binding: binds

## RING1 (endogenous, A549) (from UniProt Q06587 1-406)
[4]
  binding: binds

## UNC93B1 (endogenous, A549) (from UniProt Q9H1C4 1-597)
[3]
  binding: binds

## USP9X (endogenous, A549) (from UniProt Q93008 1-2554)
[5]
  binding: binds

## USP34 (endogenous, A549) (from UniProt Q70CQ2 1-3546)
[1]
  binding: binds
